Source: article PMC2238750
Results are given in words; binding and its absence hold for the method and conditions named. Binding seen in cells or lysates may run through a third protein. Binding calls can cover weak binding; strength is not graded here.

How the values were obtained:
[1] = target: N-terminal region of Eps15 comprising three EH domains (EH1-EH2-EH3) fused to GST (not stated (mouse in p-0016, human in p-0034)); test: pull-down; GST fusions (50 ug) on glutathione-sepharose beads incubated with Hek293 cell extract; EH buffer, 2 h at 4 °C; endogenous Eps15 detected with anti-Eps15 blot; only the target purified
[2] = target: isolated GST-EH1 domain of Eps15; test: as above

B1: full length Eps15 (endogenous, Hek293) (protein, UniProt P42566 1-896)
chain: MAAAAQLSLTQLSSGNPVYEKYYRQVDTGNTGRVLASDAAAFLKKSGLPDLILGKIWDLADTDGKGILNKQEFFVALRLVACAQNGLEVSLSSLNLAVPPPRFHDTSSPLLISGTSAAELPWAVKPEDKAKYDAIFDSLSPVNGFLSGDKVKPVLLNSKLPVDILGRVWELSDIDHDGMLDRDEFAVAMFLVYCALEKEPVPMSLPPALVPPSKRKTWVVSPAEKAKYDEIFLKTDKDMDGFVSGLEVREIFLKTGLPSTLLAHIWSLCDTKDCGKLSKDQFALAFHLISQKLIKGIDPPHVLTPEMIPPSDRASLQKNIIGSSPVADFSAIKELDTLNNEIVDLQREKNNVEQDLKEKEDTIKQRTSEVQDLQDEVQRENTNLQKLQAQKQQVQELLDELDEQKAQLEEQLKEVRKKCAEEAQLISSLKAELTSQESQISTYEEELAKAREELSRLQQETAELEESVESGKAQLEPLQQHLQDSQQEISSMQMKLMEMKDLENHNSQLNWCSSPHSILVNGATDYCSLSTSSSETANLNEHVEGQSNLESEPIHQESPARSSPELLPSGVTDENEVTTAVTEKVCSELDNNRHSKEEDPFNVDSSSLTGPVADTNLDFFQSDPFVGSDPFKDDPFGKIDPFGGDPFKGSDPFASDCFFRQSTDPFATSSTDPFSAANNSSITSVETLKHNDPFAPGGTVVAASDSATDPFASVFGNESFGGGFADFSTLSKVNNEDPFRSATSSSVSNVVITKNVFEETSVKSEDEPPALPPKIGTPTRPCPLPPGKRSINKLDSPDPFKLNDPFQPFPGNDSPKEKDPEIFCDPFTSATTTTNKEADPSNFANFSAYPSEEDMIEWAKRESEREEEQRLARLNQQEQEDLELAIALSKSEISEA
Question: For B1, which binding [1] is on record?
Answer: Its binding is “binds”.

Question: And the binding [2]?
Answer: The binding was “binds”.
